Structures can show the parent of a compound that is named as a salt. The list shows a part of the results. The calls rarely recur for the same compound in another form.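 In K562 cells expressing nanoluciferase-fused kinases, luminescence was recorded at 4 h intervals between 2 and 18 h, normalized as percent of control with DMSO at 100% and a positive control at 0%. A significant (2 sigma) signal drop marks a time point as decreased. The authors' rule for a hit is not shown and takes in more than the number of time points.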
Tests used:
Assay in all cases: number of time points (of 5) at which kinase-Nluc abundance scored as decreased, DMSO-normalised (count); higher = more persistent destabilization
Conditions in all cases: K562; 2-18 h
PRKCA = PRKCA (UniProt P17252)
PTK2 = PTK2 (UniProt Q05397)
PTK2B = PTK2B (UniProt Q14289)
RAF1 = RAF1 (UniProt P04049)
[1] = target: RAF1_S257L (clone: RAF1_mut) (UniProt P04049)
RET = RET (UniProt P07949)
[2] = target: RET_M918T (clone: RET_mut) (UniProt P07949)
RIOK1 = RIOK1 (UniProt Q9BRS2)
RIPK1 = RIPK1 (UniProt Q13546)
RIPK2 = RIPK2 (UniProt O43353)
ROR2 = ROR2 (UniProt Q01974)
RPS6KA1 = RPS6KA1 (UniProt Q15418)
SPHK1 = SPHK1 (UniProt Q9NYA1)
SRC = SRC (UniProt P12931)
STK24 = STK24 (UniProt Q9Y6E0)
STK38 = STK38 (UniProt Q15208)
SYK = SYK (UniProt P43405)
TEC = TEC (UniProt P42680)
TYK2 = TYK2 (UniProt P29597)
ULK3 = ULK3 (UniProt Q6PHR2)

By UniProt entry, the sequences of proteins in these tests, tags left out. Where a name states a change or a piece, a line headed by the entry shows the natural chain unless it says otherwise.
UniProt Q14289, whole entry, looked up: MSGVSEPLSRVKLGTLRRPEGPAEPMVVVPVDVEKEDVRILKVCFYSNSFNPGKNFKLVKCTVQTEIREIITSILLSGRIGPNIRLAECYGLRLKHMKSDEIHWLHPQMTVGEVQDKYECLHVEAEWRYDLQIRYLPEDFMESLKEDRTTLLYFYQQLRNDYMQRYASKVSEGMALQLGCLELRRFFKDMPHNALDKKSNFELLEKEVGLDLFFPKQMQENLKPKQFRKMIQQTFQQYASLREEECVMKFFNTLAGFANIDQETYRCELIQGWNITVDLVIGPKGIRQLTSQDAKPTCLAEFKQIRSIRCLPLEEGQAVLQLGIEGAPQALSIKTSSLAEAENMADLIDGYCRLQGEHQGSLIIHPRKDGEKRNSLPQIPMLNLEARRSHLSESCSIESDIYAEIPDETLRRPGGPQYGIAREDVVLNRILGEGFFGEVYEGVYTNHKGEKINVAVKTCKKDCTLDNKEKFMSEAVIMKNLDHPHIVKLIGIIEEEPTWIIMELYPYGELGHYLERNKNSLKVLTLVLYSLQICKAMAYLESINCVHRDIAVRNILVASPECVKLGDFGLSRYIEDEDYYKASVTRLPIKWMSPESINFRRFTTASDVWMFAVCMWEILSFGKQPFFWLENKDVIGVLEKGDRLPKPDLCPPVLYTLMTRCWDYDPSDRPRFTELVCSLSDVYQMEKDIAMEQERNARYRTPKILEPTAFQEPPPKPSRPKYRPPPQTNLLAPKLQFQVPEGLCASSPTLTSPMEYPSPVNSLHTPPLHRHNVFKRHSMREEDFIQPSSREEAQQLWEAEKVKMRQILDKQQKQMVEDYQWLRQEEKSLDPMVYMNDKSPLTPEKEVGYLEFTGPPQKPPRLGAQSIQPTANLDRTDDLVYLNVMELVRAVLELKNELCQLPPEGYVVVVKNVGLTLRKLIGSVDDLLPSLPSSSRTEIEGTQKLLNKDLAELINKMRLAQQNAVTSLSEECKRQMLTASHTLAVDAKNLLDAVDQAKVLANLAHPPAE
UniProt Q9BRS2: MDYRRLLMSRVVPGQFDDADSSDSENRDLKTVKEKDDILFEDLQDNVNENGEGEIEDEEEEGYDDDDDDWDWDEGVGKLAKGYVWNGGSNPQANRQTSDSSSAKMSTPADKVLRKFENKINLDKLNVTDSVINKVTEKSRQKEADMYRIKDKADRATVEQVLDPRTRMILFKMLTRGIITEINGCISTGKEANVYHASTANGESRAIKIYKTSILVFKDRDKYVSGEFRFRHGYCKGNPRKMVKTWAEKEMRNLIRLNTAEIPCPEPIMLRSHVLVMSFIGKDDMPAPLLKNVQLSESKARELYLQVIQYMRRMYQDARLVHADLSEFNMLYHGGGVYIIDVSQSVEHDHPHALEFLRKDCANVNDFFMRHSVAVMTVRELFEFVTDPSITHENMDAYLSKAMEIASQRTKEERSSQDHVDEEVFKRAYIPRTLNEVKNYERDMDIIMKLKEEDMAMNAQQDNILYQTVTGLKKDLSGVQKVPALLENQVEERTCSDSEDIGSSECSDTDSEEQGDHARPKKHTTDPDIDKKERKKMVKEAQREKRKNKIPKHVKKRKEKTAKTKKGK
UniProt Q01974, whole entry: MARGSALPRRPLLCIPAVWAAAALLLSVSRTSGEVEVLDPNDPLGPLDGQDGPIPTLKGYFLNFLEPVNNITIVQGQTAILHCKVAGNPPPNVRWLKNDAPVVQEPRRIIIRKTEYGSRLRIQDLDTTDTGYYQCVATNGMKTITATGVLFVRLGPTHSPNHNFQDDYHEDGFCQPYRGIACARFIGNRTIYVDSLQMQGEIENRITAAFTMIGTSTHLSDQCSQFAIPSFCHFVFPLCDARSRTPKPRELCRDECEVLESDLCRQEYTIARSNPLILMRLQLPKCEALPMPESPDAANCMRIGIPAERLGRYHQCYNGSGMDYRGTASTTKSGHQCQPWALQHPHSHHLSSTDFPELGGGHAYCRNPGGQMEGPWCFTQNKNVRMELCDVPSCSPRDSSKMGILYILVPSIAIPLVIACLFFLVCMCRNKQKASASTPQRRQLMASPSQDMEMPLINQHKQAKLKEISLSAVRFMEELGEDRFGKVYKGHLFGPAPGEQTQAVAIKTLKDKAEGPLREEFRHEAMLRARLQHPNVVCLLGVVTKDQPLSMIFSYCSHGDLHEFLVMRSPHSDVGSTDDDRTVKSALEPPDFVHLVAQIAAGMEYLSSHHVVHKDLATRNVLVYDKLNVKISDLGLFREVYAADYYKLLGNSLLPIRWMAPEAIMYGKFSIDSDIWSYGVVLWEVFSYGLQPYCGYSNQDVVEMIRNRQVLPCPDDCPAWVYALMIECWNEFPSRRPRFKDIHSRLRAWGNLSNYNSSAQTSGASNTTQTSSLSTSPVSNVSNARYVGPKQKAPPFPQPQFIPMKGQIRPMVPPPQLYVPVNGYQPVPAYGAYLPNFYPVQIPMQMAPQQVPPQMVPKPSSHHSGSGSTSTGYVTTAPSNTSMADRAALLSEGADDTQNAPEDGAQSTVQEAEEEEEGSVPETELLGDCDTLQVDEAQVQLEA
UniProt Q9NYA1, whole entry: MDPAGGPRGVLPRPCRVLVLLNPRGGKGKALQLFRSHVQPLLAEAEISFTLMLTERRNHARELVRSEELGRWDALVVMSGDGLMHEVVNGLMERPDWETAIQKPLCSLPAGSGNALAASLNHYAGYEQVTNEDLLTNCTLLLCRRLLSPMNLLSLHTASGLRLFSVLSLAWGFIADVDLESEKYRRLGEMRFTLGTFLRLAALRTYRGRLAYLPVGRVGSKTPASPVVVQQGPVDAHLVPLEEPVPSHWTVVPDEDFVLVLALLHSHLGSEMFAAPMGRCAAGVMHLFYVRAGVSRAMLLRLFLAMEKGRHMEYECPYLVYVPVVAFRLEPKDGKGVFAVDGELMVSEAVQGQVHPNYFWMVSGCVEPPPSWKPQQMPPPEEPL
UniProt Q9Y6E0: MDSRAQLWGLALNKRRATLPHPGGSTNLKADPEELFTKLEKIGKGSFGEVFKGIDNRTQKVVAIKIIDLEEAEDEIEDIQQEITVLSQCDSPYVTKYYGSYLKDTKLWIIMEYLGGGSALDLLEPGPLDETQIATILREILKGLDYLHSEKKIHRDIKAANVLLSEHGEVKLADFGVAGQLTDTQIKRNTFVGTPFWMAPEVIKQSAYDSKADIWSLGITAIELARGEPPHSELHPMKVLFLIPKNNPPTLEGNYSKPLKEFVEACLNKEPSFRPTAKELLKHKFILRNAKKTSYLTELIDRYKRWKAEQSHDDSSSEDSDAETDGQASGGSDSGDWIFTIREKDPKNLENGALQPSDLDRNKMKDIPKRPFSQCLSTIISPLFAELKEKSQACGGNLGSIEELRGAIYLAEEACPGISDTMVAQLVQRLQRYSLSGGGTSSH
UniProt P42680: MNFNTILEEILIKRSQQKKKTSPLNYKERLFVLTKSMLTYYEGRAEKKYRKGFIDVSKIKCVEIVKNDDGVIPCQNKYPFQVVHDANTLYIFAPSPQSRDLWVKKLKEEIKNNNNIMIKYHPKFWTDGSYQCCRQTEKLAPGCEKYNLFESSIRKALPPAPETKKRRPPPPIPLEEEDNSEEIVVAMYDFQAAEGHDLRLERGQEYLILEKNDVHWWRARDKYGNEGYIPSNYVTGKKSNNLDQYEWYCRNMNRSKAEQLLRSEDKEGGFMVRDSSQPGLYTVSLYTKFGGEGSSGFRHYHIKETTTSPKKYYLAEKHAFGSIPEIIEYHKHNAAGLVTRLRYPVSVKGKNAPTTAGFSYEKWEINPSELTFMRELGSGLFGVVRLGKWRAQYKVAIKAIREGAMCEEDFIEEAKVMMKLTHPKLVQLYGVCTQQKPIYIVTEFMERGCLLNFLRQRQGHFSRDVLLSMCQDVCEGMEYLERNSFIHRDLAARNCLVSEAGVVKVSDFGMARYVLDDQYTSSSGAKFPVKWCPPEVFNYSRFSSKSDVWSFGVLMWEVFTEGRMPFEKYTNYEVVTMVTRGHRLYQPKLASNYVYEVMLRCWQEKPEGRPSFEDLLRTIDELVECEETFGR
UniProt P29597: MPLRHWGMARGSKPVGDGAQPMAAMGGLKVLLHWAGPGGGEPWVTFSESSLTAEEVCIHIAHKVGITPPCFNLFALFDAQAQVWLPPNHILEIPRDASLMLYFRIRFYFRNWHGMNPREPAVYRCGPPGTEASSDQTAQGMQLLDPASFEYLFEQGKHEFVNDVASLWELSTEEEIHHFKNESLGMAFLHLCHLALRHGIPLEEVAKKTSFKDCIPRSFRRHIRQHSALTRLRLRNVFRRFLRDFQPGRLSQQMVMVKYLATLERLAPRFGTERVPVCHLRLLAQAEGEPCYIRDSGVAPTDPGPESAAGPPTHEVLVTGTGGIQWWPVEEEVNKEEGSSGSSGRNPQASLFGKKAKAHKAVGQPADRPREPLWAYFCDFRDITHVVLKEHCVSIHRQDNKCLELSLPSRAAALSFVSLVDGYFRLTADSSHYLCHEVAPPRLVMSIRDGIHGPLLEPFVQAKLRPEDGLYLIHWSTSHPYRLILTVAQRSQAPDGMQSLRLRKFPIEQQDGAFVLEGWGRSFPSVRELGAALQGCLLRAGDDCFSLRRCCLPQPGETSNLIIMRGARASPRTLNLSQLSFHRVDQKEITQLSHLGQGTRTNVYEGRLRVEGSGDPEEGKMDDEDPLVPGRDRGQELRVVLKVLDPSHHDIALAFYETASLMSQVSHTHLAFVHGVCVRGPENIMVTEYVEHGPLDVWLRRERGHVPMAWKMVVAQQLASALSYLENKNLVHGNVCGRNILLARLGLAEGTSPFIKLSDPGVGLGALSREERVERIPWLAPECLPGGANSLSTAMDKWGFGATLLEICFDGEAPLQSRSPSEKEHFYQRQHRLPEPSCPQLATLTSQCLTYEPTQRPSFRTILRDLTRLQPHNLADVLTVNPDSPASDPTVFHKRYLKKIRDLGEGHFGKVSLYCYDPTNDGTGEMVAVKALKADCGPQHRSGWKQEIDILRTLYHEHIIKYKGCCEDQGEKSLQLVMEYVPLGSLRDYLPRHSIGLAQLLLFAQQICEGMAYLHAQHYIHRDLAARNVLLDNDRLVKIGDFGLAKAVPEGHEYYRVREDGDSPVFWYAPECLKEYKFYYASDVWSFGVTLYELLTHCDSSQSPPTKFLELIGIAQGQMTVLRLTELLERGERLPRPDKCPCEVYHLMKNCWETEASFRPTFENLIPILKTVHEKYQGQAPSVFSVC
UniProt Q6PHR2: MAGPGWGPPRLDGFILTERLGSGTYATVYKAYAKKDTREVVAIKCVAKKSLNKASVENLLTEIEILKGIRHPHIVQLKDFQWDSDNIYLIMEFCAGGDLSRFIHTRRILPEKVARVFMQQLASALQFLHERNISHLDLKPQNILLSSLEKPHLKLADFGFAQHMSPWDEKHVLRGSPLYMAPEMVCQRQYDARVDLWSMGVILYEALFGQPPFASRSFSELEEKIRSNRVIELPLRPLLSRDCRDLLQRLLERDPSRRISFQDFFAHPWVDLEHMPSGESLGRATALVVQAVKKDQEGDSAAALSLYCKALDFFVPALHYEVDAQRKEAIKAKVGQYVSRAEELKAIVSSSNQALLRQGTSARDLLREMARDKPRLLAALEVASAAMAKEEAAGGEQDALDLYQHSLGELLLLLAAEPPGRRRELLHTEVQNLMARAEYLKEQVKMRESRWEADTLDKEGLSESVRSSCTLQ

| Structure (SMILES) | number of time points (PRKCA) | number of time points (PTK2) | number of time points (PTK2B) | number of time points (RAF1) | number of time points [1] | number of time points (RET) | number of time points [2] | number of time points (RIOK1) | number of time points (RIPK1) | number of time points (RIPK2) | number of time points (ROR2) | number of time points (RPS6KA1) | number of time points (SPHK1) | number of time points (SRC) | number of time points (STK24) | number of time points (STK38) | number of time points (SYK) | number of time points (TEC) | number of time points (TYK2) | number of time points (ULK3) |
| --- | --- | --- | --- | --- | --- | --- | --- | --- | --- | --- | --- | --- | --- | --- | --- | --- | --- | --- | --- | --- |
| CNC(=O)c1cc2c(Oc3ccc(NC(=S)NC(=O)Cc4ccccc4)cc3F)ccnc2cc1OC [TAS-115 mesylate] (10 µM) | 0 | 3 | 3 | 1 | 0 | 0 | 0 | 0 | 2 | 0 | 2 | 0 | 2 | 0 | 0 | 0 | 0 | 3 | 0 | 4 |
| Cc1cnc(-c2ccc(-c3ccc(NC(=O)Nc4cccc(C(F)(F)F)c4)cc3F)c3c2C(=O)NC3)[nH]1 (10 µM) | 0 | 4 | 0 | 0 | 3 | 0 | 0 | 1 | 2 | 2 | 0 | 0 | 0 | 0 | 0 | 1 | 0 | 0 | 2 | 2 |
| C=CCc1ccc(O)c(-c2ccc(O)c(CC=C)c2)c1 [Honokiol] (10 µM) | 0 | 0 | 0 | 0 | 0 | 0 | 0 | 0 | 0 | 0 | 0 | 0 | 0 | 0 | 0 | 0 | 0 | 0 | 0 | 0 |
| c1ccc(-c2nc3c(c(-n4ccc5cnccc54)n2)CCC3)nc1 (10 µM) | 0 | 0 | 0 | 0 | 0 | 0 | 0 | 0 | 0 | 0 | 0 | 0 | 0 | 0 | 0 | 0 | 0 | 0 | 0 | 0 |
| CN(c1ccc(NC(=O)Nc2ccc(OC(F)(F)F)cc2)cc1)c1ccnc(Nc2cccc(S(N)(=O)=O)c2)n1 (2.5 µM) | 3 | 3 | 1 | 3 | 3 | 3 | 1 | 0 | 3 | 2 | 1 | 0 | 0 | 0 | 0 | 1 | 0 | 2 | 3 | 4 |
| O=C(NCc1cccc(O)c1)Nc1nc(-c2ccncc2)cs1 (10 µM) | 0 | 0 | 0 | 0 | 0 | 0 | 0 | 0 | 0 | 0 | 0 | 0 | 0 | 0 | 0 | 0 | 0 | 0 | 0 | 0 |
| CC(C)c1cc(/C=C(\C#N)C(=O)NCCCc2ccccc2)cc(C(C)C)c1O (10 µM) | 0 | 0 | 0 | 1 | 0 | 0 | 0 | 0 | 0 | 0 | 0 | 0 | 0 | 0 | 0 | 0 | 0 | 0 | 0 | 0 |
| O=C(NC1CCOCC1)c1ccc(-c2cc(-c3c[nH]nc3-c3ccccn3)ccn2)cc1 (10 µM) | 0 | 0 | 0 | 0 | 0 | 0 | 0 | 0 | 0 | 0 | 0 | 0 | 0 | 0 | 0 | 0 | 0 | 0 | 0 | 0 |
| O=C(O)c1cccc(CN2C(=O)/C(=C(\c3ccccc3)c3ccc(Cl)cc3)c3ccccc32)c1 (2.5 µM) | 0 | 0 | 0 | 0 | 0 | 0 | 0 | 0 | 0 | 0 | 0 | 0 | 0 | 0 | 0 | 0 | 0 | 0 | 0 | 0 |
| COc1cc(N2CCOCC2)ccc1Nc1ncc(Cl)c(Nc2ccccc2NS(C)(=O)=O)n1 (2.5 µM) | 0 | 0 | 0 | 0 | 0 | 0 | 0 | 0 | 0 | 0 | 0 | 0 | 0 | 0 | 0 | 0 | 0 | 0 | 0 | 0 |
| O[C@@H]1CO[C@H]2[C@@H]1OC[C@H]2Oc1nc2nc(-c3ccc(-c4ccccc4)cc3)c(Cl)cc2[nH]1 (10 µM) | 0 | 0 | 0 | 0 | 0 | 0 | 0 | 0 | 0 | 0 | 0 | 0 | 0 | 0 | 0 | 0 | 0 | 0 | 0 | 0 |
| COc1cc(/C=C/C(=O)N2CCC=CC2=O)cc(OC)c1OC [Piperlongumine] (2.5 µM) | 0 | 3 | 0 | 0 | 5 | 0 | 0 | 0 | 4 | 4 | 0 | 0 | 0 | 0 | 0 | 0 | 0 | 0 | 0 | 0 |
| CN(C)CCC=C1c2ccccc2CCc2ccccc21 [Amitriptyline (hydrochloride)] (2.5 µM) | 0 | 0 | 0 | 0 | 0 | 0 | 0 | 0 | 0 | 0 | 0 | 0 | 0 | 0 | 0 | 0 | 0 | 0 | 0 | 0 |
| Cn1cc(-c2c[nH]c3ncnc(N4CCOCC4)c23)cc1C#N (10 µM) | 0 | 0 | 0 | 0 | 0 | 0 | 0 | 0 | 0 | 0 | 0 | 0 | 0 | 0 | 0 | 0 | 0 | 0 | 0 | 0 |
| CCc1ccc(OCC(=O)Nc2ccc(F)c([N+](=O)[O-])c2)cc1 (10 µM) | 0 | 0 | 0 | 0 | 0 | 0 | 0 | 0 | 0 | 0 | 0 | 0 | 0 | 0 | 0 | 0 | 0 | 0 | 0 | 0 |
| C[C@@H]1O[C@@H](O[C@@H]2[C@@H](O)[C@H](OCCc3ccc(O)c(O)c3)O[C@H](CO)[C@H]2OC(=O)/C=C/c2ccc(O)c(O)c2)[C@H](O)[C@H](O)[C@H]1O [Verbascoside] (10 µM) | 0 | 0 | 0 | 0 | 0 | 0 | 0 | 0 | 0 | 0 | 0 | 0 | 0 | 0 | 0 | 0 | 0 | 0 | 0 | 0 |
| COc1ccccc1C(=O)/C=C/c1ccccc1C(=O)O (10 µM) | 0 | 0 | 0 | 0 | 0 | 0 | 0 | 0 | 0 | 0 | 0 | 0 | 0 | 0 | 0 | 0 | 0 | 0 | 0 | 0 |
| CN1CCC(c2ccccc2CC(C)(C)Nc2nc(N3CCOCC3)nc(-n3c(C(F)F)nc4ccccc43)n2)CC1 [Zandelisib] (10 µM) | 0 | 0 | 0 | 0 | 0 | 0 | 0 | 0 | 0 | 0 | 0 | 0 | 0 | 0 | 0 | 0 | 0 | 0 | 0 | 0 |
| O=C(Nc1nc(=O)n(Cc2ccc(Cl)cc2)s1)c1ccc(Cl)cc1 (10 µM) | 0 | 0 | 0 | 0 | 0 | 0 | 0 | 0 | 0 | 0 | 0 | 0 | 0 | 0 | 0 | 0 | 0 | 0 | 0 | 0 |
| Cc1c(-c2ccc(C(N)=O)c3[nH]c4cc(C(C)(C)O)ccc4c23)cccc1-n1cnc2ccccc2c1=O (2.5 µM) | 0 | 0 | 0 | 0 | 0 | 0 | 0 | 0 | 0 | 0 | 0 | 0 | 0 | 0 | 0 | 0 | 0 | 0 | 0 | 0 |
| C[C@@H]1CCNC(=O)c2cc3ccc(C(=O)Nc4nc5ccccc5n4CCCN(C)C)cc3n21 (10 µM) | 0 | 0 | 0 | 0 | 0 | 0 | 0 | 0 | 0 | 0 | 0 | 0 | 0 | 0 | 0 | 0 | 0 | 0 | 0 | 0 |
| COc1ncccc1-c1cnn2ccc(N3CCN(C(=O)OC(C)C)CC3)nc12 (10 µM) | 0 | 0 | 0 | 0 | 0 | 0 | 0 | 0 | 0 | 0 | 0 | 0 | 0 | 0 | 0 | 0 | 0 | 0 | 0 | 0 |
| O=C(O)c1cc(N(Cc2ccccc2O)Cc2ccccc2O)ccc1O [Lavendustin B] (10 µM) | 0 | 0 | 0 | 0 | 0 | 0 | 0 | 0 | 0 | 0 | 0 | 0 | 0 | 0 | 0 | 0 | 0 | 0 | 0 | 0 |
| N[C@@H](CCC(=O)O)C(=O)N[C@@H](Cc1c[nH]c2ccccc12)C(=O)O [Oglufanide] (10 µM) | 0 | 0 | 0 | 0 | 0 | 0 | 0 | 0 | 0 | 0 | 0 | 0 | 0 | 0 | 0 | 0 | 0 | 0 | 0 | 0 |

3 entries from above, ordered by heavy-atom count, largest number first:

| Structure (SMILES) | number of time points (PRKCA) | number of time points (PTK2) | number of time points (PTK2B) | number of time points (RAF1) | number of time points [1] | number of time points (RET) | number of time points [2] | number of time points (RIOK1) | number of time points (RIPK1) | number of time points (RIPK2) | number of time points (ROR2) | number of time points (RPS6KA1) | number of time points (SPHK1) | number of time points (SRC) | number of time points (STK24) | number of time points (STK38) | number of time points (SYK) | number of time points (TEC) | number of time points (TYK2) | number of time points (ULK3) |
| --- | --- | --- | --- | --- | --- | --- | --- | --- | --- | --- | --- | --- | --- | --- | --- | --- | --- | --- | --- | --- |
| CN(c1ccc(NC(=O)Nc2ccc(OC(F)(F)F)cc2)cc1)c1ccnc(Nc2cccc(S(N)(=O)=O)c2)n1 (2.5 µM) | 3 | 3 | 1 | 3 | 3 | 3 | 1 | 0 | 3 | 2 | 1 | 0 | 0 | 0 | 0 | 1 | 0 | 2 | 3 | 4 |
| CNC(=O)c1cc2c(Oc3ccc(NC(=S)NC(=O)Cc4ccccc4)cc3F)ccnc2cc1OC [TAS-115 mesylate] (10 µM) | 0 | 3 | 3 | 1 | 0 | 0 | 0 | 0 | 2 | 0 | 2 | 0 | 2 | 0 | 0 | 0 | 0 | 3 | 0 | 4 |
| O=C(NCc1cccc(O)c1)Nc1nc(-c2ccncc2)cs1 (10 µM) | 0 | 0 | 0 | 0 | 0 | 0 | 0 | 0 | 0 | 0 | 0 | 0 | 0 | 0 | 0 | 0 | 0 | 0 | 0 | 0 |
